Measurements from paper PMC8986754.
Results are given in words; binding and its absence hold for the method and conditions named. Binding seen in cells or lysates may run through a third protein. Here binding means that the protein was enriched with, or labelled near, the bait; the list need not be complete.

The chains behind the UniProt entries cited, without tags or fusion partners. Residues count along the entry.
UniProt O76061, residues 25-302: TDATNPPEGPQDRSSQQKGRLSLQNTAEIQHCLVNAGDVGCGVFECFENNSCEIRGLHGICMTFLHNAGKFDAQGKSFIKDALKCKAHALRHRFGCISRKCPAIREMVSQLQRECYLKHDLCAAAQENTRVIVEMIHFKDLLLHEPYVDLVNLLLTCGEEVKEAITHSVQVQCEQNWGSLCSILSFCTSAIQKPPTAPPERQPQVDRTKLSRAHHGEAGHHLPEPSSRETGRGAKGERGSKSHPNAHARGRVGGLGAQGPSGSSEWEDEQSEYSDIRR
UniProt P05107, residues 23-769: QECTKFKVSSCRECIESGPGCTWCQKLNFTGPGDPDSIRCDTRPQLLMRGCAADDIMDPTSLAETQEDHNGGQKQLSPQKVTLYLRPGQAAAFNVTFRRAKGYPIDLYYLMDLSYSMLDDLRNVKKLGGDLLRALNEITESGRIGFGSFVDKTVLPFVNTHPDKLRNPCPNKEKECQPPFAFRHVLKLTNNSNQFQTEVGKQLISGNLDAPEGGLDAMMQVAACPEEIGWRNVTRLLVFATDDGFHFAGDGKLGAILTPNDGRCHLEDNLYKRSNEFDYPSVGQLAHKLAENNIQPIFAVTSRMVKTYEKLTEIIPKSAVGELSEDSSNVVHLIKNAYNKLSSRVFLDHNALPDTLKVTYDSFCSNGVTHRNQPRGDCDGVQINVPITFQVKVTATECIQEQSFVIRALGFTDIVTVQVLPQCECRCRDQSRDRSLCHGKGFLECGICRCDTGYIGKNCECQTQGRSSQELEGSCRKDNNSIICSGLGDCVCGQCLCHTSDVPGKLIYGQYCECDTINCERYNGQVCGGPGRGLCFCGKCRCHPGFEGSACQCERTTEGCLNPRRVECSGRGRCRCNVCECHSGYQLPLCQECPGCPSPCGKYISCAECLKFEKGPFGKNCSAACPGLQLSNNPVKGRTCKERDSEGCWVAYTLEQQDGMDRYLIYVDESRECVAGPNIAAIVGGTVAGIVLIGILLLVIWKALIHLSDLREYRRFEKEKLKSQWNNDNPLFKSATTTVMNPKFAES

Molecular target: Stanniocalcin-2 (human (endogenous in human nasopharyngeal carcinoma cell lines 6-10B / CNE1)) (UniProt O76061)
Experiment: affinity purification with mass spectrometry; immunoprecipitation from cell lysate with anti-STC2 antibody, SDS-PAGE and silver staining, mass spectrometry of the co-precipitated proteins

## integrin β2 (from UniProt P05107 23-769)
  binding: binds
